Measured values reported in patent US12296365B2, “Peroxyformic acid compositions for membrane filtration cleaning” (ECOLAB USA INC., priority 2015, dated 2025).

Assay: RO membrane compatibility soak, clean water flux and salt rejection
Settings: Koch HRX, 77 F
Experimental: In particular, the effects of PFA on reverse osmosis members which contain a polyamide structure in comparison with known control chemicals was tested. Three different membranes were tested including Koch HRX, Hydranautics CPAS and Hydranautics ESPA2+. Membranes were soaked in duplicate, in chemistries according to Table 4.
Membranes were then conditioned in Ultrasil 110 at a pH of 11 for 90 minutes at 50° C., followed by a rinse in DI water.
Each of the chemistries, with the exception of PFA was refreshed daily. PFA was refreshed hourly. After the simulated exposure the membranes are rinsed with DI water and placed on the Flat Sheet Membrane skid (Model M20). The membranes were rinsed with DI water for 24 hours at standard UF pressure and temperature. Once 24 hours was completed the membranes were subjected to alkaline conditioning step until solution pH is 11. 15.14 grams of NaCl was added to the recirculating water (2000 ppm NaCl) and the system was allowed to continue circulating. The conductivity of each permeate tube and feed was then measured and recorded and shown as percent rejection. The percent rejection was determined by (conductivity of the feed−conductivity of the permeate)/(conductivity of the feed).

| Compound | Salt Rejection (%) PFA 1 YR (300 ppm, simulated 1 Year, soak 78 hr) [%] | Salt Rejection (%) PFA 3 YR (300 ppm, simulated 3 Years, soak 234 hr) [%] | Salt Rejection (%) Peracetic acid (57 ppm, simulated 3 Years, soak 234 hr) [%] |
| --- | --- | --- | --- |
| O=COO [PFA, peroxyformic acid] | 91.26 | 87.50 |  |
| CC(=O)OO [Peracetic acid] |  |  | 93.88 |
